# For part of these data: For at least one compound, name, drawing or mass did not settle the structure. Some of these results come from one statement about several compounds together.
# Columns and labels:
# [1] = tested on: bacteria in clinical bovine mastitis milk samples; experiment: Combined bacteria identification and antimicrobial susceptibility test (colour of wells, MIC) on clinical bovine mastitis milk samples; format: cell-based
# Protocol: Clinical bovine mastitis milk samples were collected by a vet clinic in South Island, New Zealand. Samples were stored in the freezer for several months and shipped frozen to the testing facility. In this Example, the term “clinical” means that dairy cows had clinical symptoms of an udder infection e.g. cow behaved unusual, milk clots, swollen udder among other typical symptoms. Testing was executed in microwell plate comprising of 24 wells (3×8 wells).
# In addition, 20 ul of clinical mastitis sample was added to each well with a laboratory pipette.
# Abbreviations • 1. 80 ul GC+10 ul Tell: 80 ul Giolitti Cantoni base broth+10 ul Tellurite solution (1%); • 2. 80 ul TSB/Esc/Fer Cit: 80 ul Tryptic soy broth containing 0.25% Esculin and 0.125% Ammonium Ferric Citrate; • 3. 80 ul TSB/Esc/Fer Cit+10 ul Genta: 80 ul Tryptic soy broth containing 0.25% Esculin and 0.125% Ammonium Ferric Citrate+10 ul of Gentamycin solution 10 mg/ml; • 4. 80 ul McC/PR25: 80 ul MacConkey broth (single strength) containing 0.0125% phenol red; and • 5. 80 ul TSB/PR25: 80 ul Tryptic soy broth containing 0.0125% phenol red. Bacteria Identification
# Columns A to C and rows 1 and 2 were used for bacteria identification. A1: coagulase positive Staph; A2: Staphylococci; B1: Strep group D; B2: Strep group D; C1: general enrichment media (gram+ and gram-bacteria); C2: coliform bacteria.
# Column A3 to A8: serial dilution of benzyl penicillin as potassium. Column B3 to B8: serial dilution of ceftiofur as hydrochloride. Column C3 to C8: serial dilution of cloxacillin as sodium. Antibiotic concentrations are listed as free form ranging between 4 ug/ml to 0.05 ug/ml.
# Minimum inhibitory substance concentration (MIC) is here defined as the concentration if a colour change occurs between two wells (one well remains red with drug concentration 1, the other one yellow with drug concentration 2, whereas drug concentration 1 is larger than drug concentration 2) then the MIC is the value of drug concentration 1.
# Table 21 indicates the microwell plate configuration #1; Drugs: Benzylpenicillin as potassium; Cloxacillin as sodium; Ceftiofur as hydrochloride; Drug concentration in each well (A3 to C8) is based on 80 μl composition+10 μl drug solution+20 μl clinical mastitis milk sample and equivalent to listed drug concentration in μg/ml; 20 ul of clinical bovine mastitis milk sample was added to each well (A1 to C8).
# In addition, each well received one drop of clinical sample from a transfer pipette which was on average about 35 mg. This was determined through weighing the well plate prior and after the addition of clinical mastitis samples. This weight was then divided by 24.
# • 1. 80 ul GC+10 ul Tell: 80 ul Giolitti Cantoni base broth+10 ul Tellurite solution (1%); • 2. […]
# Staphylococcus aureus = experiment: Antibiotic susceptibility testing (colour of media), spiked milk; format: cell-based; conditions: Mueller Hinton (70 ul composition 26), bacteria sample 5c
# Protocol: Tables 36 to 38 which follow show further examples of antibiotic susceptibility testing performed in accordance with the present invention. Table 36, antibiotic susceptibility testing of Staphylococcus aureus in Mueller Hinton and Tryptic Soy Broth at pre-incubation and at between 15-24 h. Tables 37 and 38, antimicrobial susceptibility testing of Streptococcus uberis and E. coli with the addition of gram negative specific antibiotic aztreonam. Tables 38 to 49 show further examples of antibiotic susceptibility testing and the outcomes are aligned with the described inventions.
# [2] = clinical sample ID 3 (coliform bacteria), 37° C. for 22 hours, plate configuration #1
# [3] = clinical sample ID 6 (coliform bacteria), 37° C. for 23 hours, plate configuration #2
smiles,measurement,setting,value
Cc1onc(-c2ccccc2Cl)c1C(=O)N[C@@H]1C(=O)N2[C@@H]1SC(C)(C)[C@@H]2C(=O)O [cloxacillin],MIC,[1]; [2],> 4 µg/mL
same,MIC,[1]; [3],> 4 µg/mL
CC1(C)S[C@@H]2[C@H](NC(=O)Cc3ccccc3)C(=O)N2[C@H]1C(=O)O [benzyl penicillin],MIC,[1]; [2],> 4 µg/mL
same,MIC,[1]; [3],> 4 µg/mL
CN(C)[C@@H]1C(O)=C(C(N)=O)C(=O)[C@@]2(O)C(O)=C3C(=O)c4c(O)cccc4[C@@](C)(O)[C@H]3[C@H](O)[C@@H]12 [Oxytetracycline],Colour of media,"Staphylococcus aureus; T = 0 hours (pre incubation), drug 0.01 μg/ml",red
same,Colour of media,"Staphylococcus aureus; T = 0 hours (pre incubation), drug 0.05 μg/ml",red
same,Colour of media,"Staphylococcus aureus; T = 0 hours (pre incubation), drug 0.1 μg/ml",red
same,Colour of media,"Staphylococcus aureus; T = 0 hours (pre incubation), drug 0.5 μg/ml",red
same,Colour of media,"Staphylococcus aureus; T = 0 hours (pre incubation), drug 1 μg/ml",red
same,Colour of media,"Staphylococcus aureus; T = 0 hours (pre incubation), drug 5 μg/ml",red
same,Colour of media,"Staphylococcus aureus; T = 0 hours (pre incubation), drug 10 μg/ml",red
same,Colour of media,"Staphylococcus aureus; T = 0 hours (pre incubation), drug 50 μg/ml",red
same,Colour of media,"Staphylococcus aureus; T = 0 hours (pre incubation), drug 100 μg/ml",red
same,Colour of media,"Staphylococcus aureus; T = 0 hours (pre incubation), drug 500 μg/ml",red
same,Colour of media,"Staphylococcus aureus; T = 15-24 h at 35° C., drug 0.01 μg/ml",yellow
same,Colour of media,"Staphylococcus aureus; T = 15-24 h at 35° C., drug 0.05 μg/ml",yellow
same,Colour of media,"Staphylococcus aureus; T = 15-24 h at 35° C., drug 0.1 μg/ml",yellow
same,Colour of media,"Staphylococcus aureus; T = 15-24 h at 35° C., drug 0.5 μg/ml",red
same,Colour of media,"Staphylococcus aureus; T = 15-24 h at 35° C., drug 1 μg/ml",red
same,Colour of media,"Staphylococcus aureus; T = 15-24 h at 35° C., drug 5 μg/ml",red
same,Colour of media,"Staphylococcus aureus; T = 15-24 h at 35° C., drug 10 μg/ml",red
same,Colour of media,"Staphylococcus aureus; T = 15-24 h at 35° C., drug 50 μg/ml",red
same,Colour of media,"Staphylococcus aureus; T = 15-24 h at 35° C., drug 100 μg/ml",red
same,Colour of media,"Staphylococcus aureus; T = 15-24 h at 35° C., drug 500 μg/ml",red
